# In patent US11779620B2 (priority 2020, dated 2023):
# Assay: Endotoxin testing, quantitative kinetic turbidimetric method
# Settings: purified LPS
substance,measurement,setting,value
lipopolysaccharide [LPS],"level of endotoxin, equivalent",converted from EU/ng,"10,000,000 EU/mg"
same,level of endotoxin,same assay,10 EU/ng
